Among the data in doi:10.1101/335232 are binding values, retold here.

Amino acid sequences for entries named in this document (tags omitted). Residues count along the entry.
UniProt P05090, 21-189: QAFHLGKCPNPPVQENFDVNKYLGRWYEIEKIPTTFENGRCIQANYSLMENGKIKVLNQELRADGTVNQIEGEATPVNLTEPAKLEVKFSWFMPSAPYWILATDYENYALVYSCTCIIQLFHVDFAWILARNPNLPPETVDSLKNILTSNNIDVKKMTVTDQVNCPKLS

For test [1], the target named is Human apolipoprotein-D (apoD) in cerebrospinal fluid (human) (UniProt P05090). Put plainly: native gel or EMSA. (In EMSA bound probe runs differently from free probe, usually more slowly.)
Test [2] shares this target. Put plainly: SEC. For orientation: SEC sorts molecules by how far they enter the pores of the column.

No constants are given. Whether binding was seen depends on the method and setting. Some binding calls cover weakened binding; strength is not graded here.

In the case of “Human apolipoprotein-D (apoD) in cerebrospinal fluid (from UniProt P05090 21-189)”, the binding result in test [1] and in test [2] was “binds” in each case.
